Results from article PMC7918530.

By UniProt entry, the sequences of proteins in these tests, tags left out.
UniProt Q8CH84: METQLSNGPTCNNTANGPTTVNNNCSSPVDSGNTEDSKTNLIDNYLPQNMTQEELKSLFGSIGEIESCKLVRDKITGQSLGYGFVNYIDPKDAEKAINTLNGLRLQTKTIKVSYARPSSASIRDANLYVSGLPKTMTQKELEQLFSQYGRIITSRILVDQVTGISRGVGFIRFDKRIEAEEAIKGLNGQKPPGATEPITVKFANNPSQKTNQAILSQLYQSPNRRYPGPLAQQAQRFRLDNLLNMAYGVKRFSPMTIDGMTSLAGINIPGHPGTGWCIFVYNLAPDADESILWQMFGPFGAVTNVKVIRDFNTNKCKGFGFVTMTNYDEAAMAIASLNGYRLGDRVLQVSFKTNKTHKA
UniProt O09032: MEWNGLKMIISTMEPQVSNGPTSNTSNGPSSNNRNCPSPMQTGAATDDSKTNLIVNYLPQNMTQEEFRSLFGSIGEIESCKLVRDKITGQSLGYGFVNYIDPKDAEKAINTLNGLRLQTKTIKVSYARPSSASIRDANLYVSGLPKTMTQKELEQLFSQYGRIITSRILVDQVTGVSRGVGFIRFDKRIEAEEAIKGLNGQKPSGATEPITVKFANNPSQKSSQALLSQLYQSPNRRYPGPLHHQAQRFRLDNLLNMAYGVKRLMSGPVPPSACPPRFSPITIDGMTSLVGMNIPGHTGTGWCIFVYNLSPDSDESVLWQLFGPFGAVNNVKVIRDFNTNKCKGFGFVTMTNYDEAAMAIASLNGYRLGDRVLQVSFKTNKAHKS
UniProt Q7TP98: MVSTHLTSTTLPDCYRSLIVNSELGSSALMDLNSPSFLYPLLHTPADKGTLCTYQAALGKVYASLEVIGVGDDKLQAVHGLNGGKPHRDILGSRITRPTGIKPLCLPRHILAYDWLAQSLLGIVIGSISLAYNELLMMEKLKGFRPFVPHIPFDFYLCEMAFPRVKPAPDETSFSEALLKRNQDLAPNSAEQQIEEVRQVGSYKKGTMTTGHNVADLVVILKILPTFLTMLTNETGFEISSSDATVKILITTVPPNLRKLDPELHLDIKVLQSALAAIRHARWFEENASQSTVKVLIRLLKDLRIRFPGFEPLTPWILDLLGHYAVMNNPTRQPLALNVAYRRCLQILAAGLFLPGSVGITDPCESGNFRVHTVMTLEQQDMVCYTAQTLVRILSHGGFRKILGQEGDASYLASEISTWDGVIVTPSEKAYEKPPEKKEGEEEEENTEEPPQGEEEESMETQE

biological target: T1, Upf1 (rat (endogenous in PC12 cells and sympathetic neurons)); assay: affinity purification with mass spectrometry; Upf1 immuno-complexes precipitated from 20x10^6 PC12 cells, naive or differentiated with NGF for 4 days; on-bead tryptic digestion, oxygen18 differential labeling, nano LC-MS/MS
T1 sequence: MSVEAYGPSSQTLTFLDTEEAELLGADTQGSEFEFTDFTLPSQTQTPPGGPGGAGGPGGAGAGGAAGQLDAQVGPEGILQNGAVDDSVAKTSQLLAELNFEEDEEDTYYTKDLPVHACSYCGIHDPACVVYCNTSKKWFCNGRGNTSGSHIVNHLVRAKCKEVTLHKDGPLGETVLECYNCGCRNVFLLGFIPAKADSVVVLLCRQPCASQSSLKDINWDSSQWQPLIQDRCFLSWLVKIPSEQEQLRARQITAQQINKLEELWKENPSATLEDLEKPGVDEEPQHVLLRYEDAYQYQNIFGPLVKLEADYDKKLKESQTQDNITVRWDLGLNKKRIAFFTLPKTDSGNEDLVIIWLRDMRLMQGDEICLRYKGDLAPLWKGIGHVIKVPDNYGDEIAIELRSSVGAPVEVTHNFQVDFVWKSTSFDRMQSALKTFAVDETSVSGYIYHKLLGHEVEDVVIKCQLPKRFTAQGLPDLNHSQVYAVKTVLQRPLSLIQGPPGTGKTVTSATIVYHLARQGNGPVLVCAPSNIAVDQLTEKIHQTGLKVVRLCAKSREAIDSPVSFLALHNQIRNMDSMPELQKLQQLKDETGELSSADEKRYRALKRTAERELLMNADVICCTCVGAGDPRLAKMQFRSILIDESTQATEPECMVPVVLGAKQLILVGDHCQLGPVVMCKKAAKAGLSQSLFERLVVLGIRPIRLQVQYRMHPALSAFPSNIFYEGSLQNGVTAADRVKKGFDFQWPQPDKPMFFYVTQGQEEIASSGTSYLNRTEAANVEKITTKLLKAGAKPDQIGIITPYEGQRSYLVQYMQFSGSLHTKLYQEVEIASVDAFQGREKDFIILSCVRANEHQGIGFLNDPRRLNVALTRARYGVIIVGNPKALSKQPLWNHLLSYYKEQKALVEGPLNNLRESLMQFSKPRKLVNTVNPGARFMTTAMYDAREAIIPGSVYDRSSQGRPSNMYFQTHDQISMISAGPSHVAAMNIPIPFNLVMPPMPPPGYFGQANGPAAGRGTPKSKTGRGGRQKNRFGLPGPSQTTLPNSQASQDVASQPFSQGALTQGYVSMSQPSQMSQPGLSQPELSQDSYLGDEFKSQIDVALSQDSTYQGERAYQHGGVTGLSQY

binding | Substance
binds | ELAV-like protein 2 (from UniProt Q8CH84 1-359)
binds | ELAV-like protein 4 (HuD) (from UniProt O09032 1-385)
binds | interleukin enhancer-binding factor 2 (from UniProt Q7TP98 1-463)

These are yes or no findings as the source states them, for the method shown. Binding seen in cells or lysates may run through a third protein. These calls come from enrichment with a bait or labelling near it, and not all partners need be listed.
